Results deposited as PubChem BioAssay AID1224830 (NIAID, 2016)
Assay: 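Genes whose knock-down alters the TNF-alpha reporter response to LPS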 (primary screen). System: human THP-1 monocytic leukaemia cells, TNF dual-luciferase reporter clone, PMA-differentiated to macrophage-like cells. Reagent: siRNA pool against human genes, 50 nM. Time to read-out: LPS for 4 h, given about 3 days after siRNA transfection. Treatment: bacterial LPS (TLR4 ligand), 10 ng/ml. Read-out: 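Ratio of firefly to renilla light, scaled to the plate median and expressed as a robust z-score per replicate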. Direction: TNF reporter robust z-score: higher = stronger TNF reporter response to LPS. Rule for the call: 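a well is active when its z-score exceeds 2.8 or falls below -1.5; control wells carry no call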.
In all, the deposit lists about 18,000 reagents; shown is an unselected part. About 2,900 of all reagents (16%) were called active. 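Calls are made per well; low scores hint the gene aids the LPS response, high scores that it dampens it.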 Unmarked entries are inactive. Repeated entries: four replicate wells of each siRNA pool.

no.	gene knocked down	TNF reporter robust z-score
1	SPTLC1 (serine palmitoyltransferase long chain base subunit 1)	-0.83
2	SPTLC1 (serine palmitoyltransferase long chain base subunit 1)	0.57
3	SPTLC1 (serine palmitoyltransferase long chain base subunit 1)	-0.19
4	SPTLC1 (serine palmitoyltransferase long chain base subunit 1)	0.05
5	SLCO2A1	0
6	SLCO2A1	0.58
7	SLCO2A1	0.64
8	SLCO2A1	0.6
9	ECSCR	-0.71
10	ECSCR	-0.78
11	ECSCR	-1.48
12	ECSCR	-0.79
13	GTF3C1 (general transcription factor IIIC subunit 1)	0.04
14	GTF3C1 (general transcription factor IIIC subunit 1)	0.81
15	GTF3C1 (general transcription factor IIIC subunit 1)	0.23
16	GTF3C1 (general transcription factor IIIC subunit 1)	1.18
17	GNA13 (G protein subunit alpha 13)	-1.04
18	GNA13 (G protein subunit alpha 13)	-0.74
19	GNA13 (G protein subunit alpha 13)	-0.89
20	GNA13 (G protein subunit alpha 13)	-0.8
21	CAPZA2 (capping actin protein of muscle Z-line subunit alpha 2)	0.95
22	CAPZA2 (capping actin protein of muscle Z-line subunit alpha 2)	2.76
23	CAPZA2 (capping actin protein of muscle Z-line subunit alpha 2)	1.75
24	FAM193A (family with sequence similarity 193 member A)	-0.98
25	FAM193A (family with sequence similarity 193 member A)	-0.75
26	FAM193A (family with sequence similarity 193 member A)	-0.96
27	FAM193A (family with sequence similarity 193 member A)	-0.24
28	LYZL6 (lysozyme like 6)	-0.77
29	LYZL6 (lysozyme like 6)	0.51
30	LYZL6 (lysozyme like 6)	0.77
31	LYZL6 (lysozyme like 6)	0.56
32	ADAM11 (ADAM metallopeptidase domain 11)	-1.81 (active)
33	ADAM11 (ADAM metallopeptidase domain 11)	-1.14
34	ADAM11 (ADAM metallopeptidase domain 11)	0.27
35	ADAM11 (ADAM metallopeptidase domain 11)	-1.45
36	KCNS1	-1.1
37	KCNS1	0.17
38	KCNS1	0.67
39	KCNS1	0.52
40	HEATR6 (HEAT repeat containing 6)	-0.35
41	HEATR6 (HEAT repeat containing 6)	-1.29
42	HEATR6 (HEAT repeat containing 6)	-0.75
43	HEATR6 (HEAT repeat containing 6)	-0.7
44	ENO1 (enolase 1)	0.27
45	ENO1 (enolase 1)	-0.13
46	ENO1 (enolase 1)	2.12
47	ENO1 (enolase 1)	0.55
48	MPDZ (multiple PDZ domain crumbs cell polarity complex component)	-1.22
49	MPDZ (multiple PDZ domain crumbs cell polarity complex component)	-1.19
50	MPDZ (multiple PDZ domain crumbs cell polarity complex component)	-1.29
51	MPDZ (multiple PDZ domain crumbs cell polarity complex component)	-1.48
52	RANBP6 (RAN binding protein 6)	-0.81
53	RANBP6 (RAN binding protein 6)	-0.39
54	RANBP6 (RAN binding protein 6)	-0.43
55	RANBP6 (RAN binding protein 6)	-0.32
56	ZFP91 (ZFP91 zinc finger protein, atypical E3 ubiquitin ligase)	0.09
57	ZFP91 (ZFP91 zinc finger protein, atypical E3 ubiquitin ligase)	0.78
58	ZFP91 (ZFP91 zinc finger protein, atypical E3 ubiquitin ligase)	0.32
59	ZFP91 (ZFP91 zinc finger protein, atypical E3 ubiquitin ligase)	2.09
60	AMD1 (adenosylmethionine decarboxylase 1)	0.41
61	AMD1 (adenosylmethionine decarboxylase 1)	0.78
62	AMD1 (adenosylmethionine decarboxylase 1)	0.03
63	AMD1 (adenosylmethionine decarboxylase 1)	0.77
64	USP47 (ubiquitin specific peptidase 47)	-0.34
65	USP47 (ubiquitin specific peptidase 47)	-0.42
66	USP47 (ubiquitin specific peptidase 47)	-0.43
67	USP47 (ubiquitin specific peptidase 47)	0.2
68	RGS13 (regulator of G protein signaling 13)	0.41
69	RGS13 (regulator of G protein signaling 13)	1.2
70	RGS13 (regulator of G protein signaling 13)	0.65
71	RGS13 (regulator of G protein signaling 13)	0.77
72	C14orf93 (chromosome 14 open reading frame 93)	1.41
73	C14orf93 (chromosome 14 open reading frame 93)	0.51
74	C14orf93 (chromosome 14 open reading frame 93)	-0.83
75	C14orf93 (chromosome 14 open reading frame 93)	-0.7
76	ZFHX3 (zinc finger homeobox 3)	-0.39
77	ZFHX3 (zinc finger homeobox 3)	-0.72
78	ZFHX3 (zinc finger homeobox 3)	-1.01
79	ZFHX3 (zinc finger homeobox 3)	-0.09
80	CYB5R1 (cytochrome b5 reductase 1)	-1.6 (active)
81	CYB5R1 (cytochrome b5 reductase 1)	-1.04
82	CYB5R1 (cytochrome b5 reductase 1)	-1.45
83	CYB5R1 (cytochrome b5 reductase 1)	-1.11
84	C10orf67 (chromosome 10 open reading frame 67)	-1.11
85	C10orf67 (chromosome 10 open reading frame 67)	-0.36
86	C10orf67 (chromosome 10 open reading frame 67)	-1.44
87	C10orf67 (chromosome 10 open reading frame 67)	0.54
88	XPO5 (exportin 5)	0.61
89	XPO5 (exportin 5)	1.21
90	XPO5 (exportin 5)	0.92
91	XPO5 (exportin 5)	1.27
92	ADK (adenosine kinase)	2.12
93	ADK (adenosine kinase)	3.73 (active)
94	ADK (adenosine kinase)	1.09
95	ADK (adenosine kinase)	2.43
96	TSPAN6 (tetraspanin 6)	2.42
97	TSPAN6 (tetraspanin 6)	2.1
98	TSPAN6 (tetraspanin 6)	0.72
99	TSPAN6 (tetraspanin 6)	0.91
100	C4orf33 (chromosome 4 open reading frame 33)	-0.74
101	C4orf33 (chromosome 4 open reading frame 33)	-0.09
102	C4orf33 (chromosome 4 open reading frame 33)	0.31
103	C4orf33 (chromosome 4 open reading frame 33)	-0.17
104	OR1N2 (olfactory receptor family 1 subfamily N member 2)	-1.02
105	OR1N2 (olfactory receptor family 1 subfamily N member 2)	-0.57
106	OR1N2 (olfactory receptor family 1 subfamily N member 2)	-0.1
107	OR1N2 (olfactory receptor family 1 subfamily N member 2)	-0.2
108	SCNM1 (sodium channel modifier 1)	-1.42
109	SCNM1 (sodium channel modifier 1)	-1.21
110	SCNM1 (sodium channel modifier 1)	-1.38
111	SCNM1 (sodium channel modifier 1)	-1.66 (active)
